Data reported in PubChem BioAssay AID1347423 (Functional Genomics Laboratory (NCATS/FGL), 2020).
The whole screen tested about 52,000 sequences, of which about 210 (0.4%) were called active.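 Rule for the calls: active = gene whose silencing raises cell survival under the drug, median off-target-corrected z-score across its silencing RNAs 2 or more; inactive = the rest.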 Some of the results follow.

test: Resistance to Poly (ADP-Ribose) Polymerase inhibitor: Gene Identification via Genome-wide siRNA Screen; details: mouse BRCA2 R2336H ES cells, olaparib, CellTiter-Glo viability; stronger effect = higher value
Summary of the method: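 Mouse BRCA2 R2336H ES cells were reverse-transfected with siRNA (20 nM final), treated at 48 h with 500 nM olaparib, and read by CellTiter-Glo after 72 h. Scores: MAD-based z per siRNA, median per gene, seed off-target correction.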

Sequence	z-score
GCCCAAUAGCCUAGGACCUTT against 4933412E14Rik	inactive: 0.884
GGAGUAGCCACUGAGGACUTT against D2Ertd145e	inactive: -1.66
GGAAGUGAGAUGUCACUGATT against A430110N23	inactive: 0.136
GGACUUCACAAGAGUAUUATT against 9430022A14	inactive: -0.534
GCCAGAAUAAACAUUAGUGTT against 1700007N18Rik	inactive: 0.527
GCUACUUUGACAUGCACACTT against Drd1ip	inactive: 0.131
GCCAGAAACUAAUGAGAUCTT against 1110001E17Rik	active: 1.17
GGAUGAAUGGUUUAUUGUUTT against 5730461K03Rik	inactive: -1.29
GGAUCUUGAGUUUACCAAATT against Uqcrc2	inactive: -0.951
CCUCUUCCAGAGAUGUAGCTT against Fos	inactive: 0.118
GGCUACGGUGAUAGAGAUGTT against Rbmxrt	inactive: -0.583
CCCGAGAACAUCUUGUACGTT against Rps6ka4	inactive: -0.639
GGGUAUUUUACCACUACUUTT against Psg23	inactive: 0.898
GGGAGUUUAUUCAAAAGUGTT against Nrbp	inactive: 0.522
GGAUCAUUUCAAAACACACTT against Kcnh1	inactive: 0.544
GGAGAUGCACAAAAGAAUATT against Slc35d1	inactive: -0.0886
GGACAAAGAAACUCAUAGGTT against A530021J07	inactive: 1.45
GGAAUUCUUCAGGUGGAUATT against BC013529	inactive: -0.474
GCCAUAAGAUGCUACAGUGTT against 2310057H16Rik	inactive: 0.168
GCGGACUACUAUGCUAAAGTT against Tgfb1	inactive: 0.757
GGGCCAAAUAGCUAUGCAGTT against BC008184	inactive: -0.343
GCGACACAUAUUAACCAAATT against 8430408H12Rik	inactive: 0.0757

Sequence	z-score
GGAGUAGAUCCAAAUGCACTT against Klhl4	inactive: 1.2
GCACCAGUGAUAUUUUUACTT against Tas2r110	inactive: 0.19
CGACAUGCCUAUCUACAUGTT against Epha2	inactive: 0.0637
GGCCGAGUAGCUGAUGAAATT against Dhx35	inactive: 0.61
CCUUUGACUAAUCGUUUUGTT against Cln2	inactive: 0.812
GGAGAUCUCCAUCAUCACCTT against 4930511O11Rik	inactive: -0.697
GGUCAUCGGGAGGUUUGAATT against Nfkbil1	inactive: 1.23
GGGAUACGGUCCACACUAUTT against Arl1	inactive: -1.33
GGGAAAGCAAAAAUAAUCUTT against Gp38	inactive: -0.688
GGAGCAAGAUGAAGAAGAGTT against Ticam2	inactive: -2.14
CGAGCAUCUGUUAUGUACATT against Olfr19	inactive: 1.01
GGUAUUGGUUAAGUAUCACTT against Sumo3	inactive: 0.979
GGAAUUUUCUGAGAUUCGGTT against Il20	inactive: 0.299
GCCACUUCACAGCAAGCUATT against Cdk2ap1	inactive: 0.599
CCUAUGAAUUGGCUAUCAUTT against 1300013J15Rik	inactive: -0.3
GGUCAGGAUGAAGAAAACATT against Nedd4l	inactive: -0.897
GGAAAUGUUUCUGUUCAUUTT against Nipsnap3a	inactive: 0.0974
UAUCACAGACAUGAAAGAATT against Lst1	inactive: 1.39
GGAAAAAAGCCUCAUCGGATT against 4931433A13Rik	inactive: -0.23
GGGAAGCUACUCUUUGUCUTT against Hexb	inactive: 0.745
GGAAAAUGGGAAGACAGAGTT against AW557805	inactive: -0.799
GGAGUUUCUCUUAGGGAAATT against 1110014K08Rik	inactive: 0.448

Sequence	z-score
CCAGUAAGGCUUUUAUAUATT against 6430706D22Rik	inactive: 2.33
CCAAUUUGACCCAUACUAUTT against 4632407F12Rik	inactive: -0.745
GGAUCUUGGAUGAGCUGACTT against Krt1-1	inactive: -0.2
GGUGACAGGAAAGUUCUGUTT against AI987692	inactive: 1.89
CCAUACUAUUUGCUUUUGCTT against Apg5l	inactive: -0.471
GCAGGCUAUGUUCUGGAAUTT against Zfp212	inactive: 1.18
GCCUGUUCUCAAGACUGACTT against Sema4a	inactive: -0.413
CGUUGUAUAACAAACCAAUTT against Muc6	inactive: -1.12
GGAAACAACCCAAAGAAUCTT against Slc12a8	inactive: -0.297
GGACUUCACAAAGAGCUUUTT against 4930415J21Rik	inactive: -0.254
GGGAAAAUGUUGAUGCUGATT against Akp5	inactive: -1.65
GCUACCACAUUUAAACCUUTT against Mrps14	inactive: -0.183
GGUUUUCCCACAUGUCAGATT against 2610510L01Rik	inactive: 0.204
GGAAAUCAGAAGAAGAACATT against Hars	inactive: -1.2
CCACAGAAAUAUUUCUGUGTT against Olfr292	inactive: 0.916
CCCACAUGUUGUCUGUAUUTT against Opn3	inactive: -0.8
GGAUGAUGAUGAGGAAGGGTT against Cd2bp2	inactive: -0.438
GGAGAAAACAGGCAAUAGUTT against E130201N16Rik	inactive: 0.624
GGUGAUGUUUGUCAACAACTT against Slc14a2	inactive: 0.822
GGCUCAUCGAGAUUAACCCTT against AI790298	inactive: -0.371
GGAUUUGAAUUUGAGAGUUTT against 5730410I19Rik	inactive: -0.35

Reprinted at random: 3 entries already listed, in no set order.
Sequence	z-score
GGAGAUCUCCAUCAUCACCTT against 4930511O11Rik	inactive: -0.697
GGGAAGCUACUCUUUGUCUTT against Hexb	inactive: 0.745
GGAUGAUGAUGAGGAAGGGTT against Cd2bp2	inactive: -0.438
